The target of test [1] is T1, HA-tagged Fwe (Flower) from a genomic rescue transgene (Drosophila) (UniProt Q95T12).
T1 sequence: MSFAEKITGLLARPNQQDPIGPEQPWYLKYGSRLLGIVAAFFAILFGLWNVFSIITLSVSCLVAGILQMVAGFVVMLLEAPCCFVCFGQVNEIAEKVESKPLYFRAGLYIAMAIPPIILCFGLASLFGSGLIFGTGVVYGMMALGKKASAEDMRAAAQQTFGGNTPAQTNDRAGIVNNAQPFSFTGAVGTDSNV
As to the kind of experiment: co-IP.

Test [2] has as its target T2, mCherry-tagged Fwe (Flower) from a genomic rescue transgene (Drosophila) (UniProt Q95T12).
T2 sequence: T1 sequence
As to the kind of experiment: co-IP.

Results are given in words; binding and its absence hold for the method and conditions named. Binding seen in cells or lysates may run through a third protein. Some binding calls cover weakened binding; strength is not graded here. Where a sequence is shown, tags or fusion partners need not be part of it.

Results on one molecule are retold here after article doi:10.1101/2020.06.22.164400.

B1: α subunit of the AP-2 complex (AP-2α) (protein, UniProt P91926 1-940)
chain: MAPVRGDGMRGLAVFISDIRNCKSKEAEVKRINKELANIRSKFKGDKTLDGYQKKKYVCKLLFIFLLGHDIDFGHMEAVNLLSSNKYSEKQIGYLFISVLVNTNSDLIRLIIQSIKNDLQSRNPVHVNLALQCIANIGSRDMAESFSNEIPKLLVSGDTMDVVKQSAALCLLRLFRSSPDIIPGGEWTSRIIHLLNDQHMGVVTAATSLIDALVKRNPDEYKGCVNLAVSRLSRIVTASYTDLQDYTYYFVPAPWLSVKLLRLLQNYNPVTEEAGVRARLNETLETILNKAQEPPKSKKVQHSNAKNAVLFEAINLIIHSDSEPNLLVRACNQLGQFLSNRETNLRYLALESMCHLATSEFSHEEVKKHQEVVILSMKMEKDVSVRQMAVDLLYAMCDRGNAEEIVQEMLNYLETADYSIREEMVLKVAILAEKYATDYTWYVDVILNLIRIAGDYVSEEVWYRVIQIVINREEVQGYAAKTVFEALQAPACHENMVKVGGYILGEFGNLIAGDSRSAPLVQFKLLHSKYHLCSPMTRALLLSTYIKFINLFPEIRTNIQDVFRQHSNLRSADAELQQRASEYLQLSIVASTDVLATVLEEMPSFPERESSILAVLKKKKPGRVPENEIRESKSPAPLTSAAQNNALVNNSHSKLNNSNANTDLLGLSTPPSNNIGSGSNSNSTLIDVLGDMYGSNSNNNSSAVYNTKKFLFKNNGVLFENEMLQIGVKSEFRQNLGRLGLFYGNKTQVPLTNFNPVLQWSAEDALKLNVQMKVVEPTLEAGAQIQQLLTAECIEDYADAPTIEISFRYNGTQQKFSIKLPLSVNKFFEPTEMNAESFFARWKNLSGEQQRSQKVFKAAQPLDLPGARNKLMGFGMQLLDQVDPNPDNMVCAGIIHTQSQQVGCLMRLEPNKQAQMFRLTVRASKETVTREICDLLTDQF
Regarding B1, the binding result in test [1] and in test [2] was “binds” throughout.
